Some entries share one result that the patent states for a list of compounds.
test system: SKBr3 and MCF-7 cell lines; assay: Anti-proliferative activity against both breast cancer cell lines (results in words); type: cell-based; conditions: SKBr3 and MCF-7, Tables 1-5
Method: Cells were maintained in a 1:1 mixture of Advanced DMEM/F12 (Gibco) supplemented with non-essential amino acids, L-glutamine (2 mM), streptomycin (500 μg/mL), penicillin (100 units/mL), and 10% FBS. Cells were grown to confluence in a humidified atmosphere (37° C., 5% CO2), seeded (2000/well, 100 μL) in 96-well plates, and allowed to attach overnight. Compound at varying concentrations in DMSO (1% DMSO final concentration) was added, and cells were returned to the incubator for 72 h. At 72 h, the number of viable cells was determined using an MTS/PMS cell proliferation kit (Promega) per the manufacturer's instructions. Cells incubated in 1% DMSO were used at 100% proliferation, and values were adjusted accordingly. IC50 values were calculated from separate experiments performed in triplicate using GraphPad Prism.
The anti-proliferative activity of these compounds is evaluated against two breast cancer cell lines, SKBr3 (estrogen receptor negative, Her2 over-expressing breast cancer cells) and MCF-7 (estrogen receptor positive breast cancer cells).

Compound	anti-proliferative activity (in words)
COc1ccc(C(=O)Nc2cc3ccc(OC4CCN(C)CC4)c(C)c3oc2=O)cc1CC=C(C)C [Compound 16, 4-methoxy-N-(8-methyl-7-(1-methylpiperidin-4-yloxy)-2-oxo-2H-chromen-3-yl)-3-(3-methylbut-2-enyl)benzamide]	decreased anti-proliferative activity against both cell lines
CCCCOc1ccc(C(=O)Nc2cc3ccc(OC4CCN(C)CC4)c(C)c3oc2=O)cc1CC=C(C)C [Compound 17, 4-butoxy-N-(8-methyl-7-(1-methylpiperidin-4-yloxy)-2-oxo-2H-chromen-3-yl)-3-(3-methylbut-2-enyl)benzamide]	decreased anti-proliferative activity against both cell lines
C#CCOc1ccc(C(=O)Nc2cc3ccc(OC4CCN(C)CC4)c(C)c3oc2=O)cc1CC=C(C)C [Compound 18, N-(8-methyl-7-(1-methylpiperidin-4-yloxy)-2-oxo-2H-chromen-3-yl)-3-(3-methylbut-2-enyl)-4-(prop-2-ynyloxy)benzamide]	decreased anti-proliferative activity against both cell lines
CC(C)=CCc1cc(C(=O)Nc2cc3ccc(OC4CCN(C)CC4)c(C)c3oc2=O)ccc1OCCN(C)C [Compound 23, 4-(2-(dimethylamino)ethoxy)-N-(8-methyl-7-(1-methylpiperidin-4-yloxy)-2-oxo-2H-chromen-3-yl)-3-(3-methylbut-2-enyl)benzamide]	increased anti-proliferative activity
CC(C)=CCc1cc(C(=O)Nc2cc3ccc(OC4CCN(C)CC4)c(C)c3oc2=O)ccc1OCCCN(C)C [Compound 24, 4-(3-(dimethylamino)propoxy)-N-(8-methyl-7-(1-methylpiperidin-4-yloxy)-2-oxo-2H-chromen-3-yl)-3-(3-methylbut-2-enyl)benzamide]	increased anti-proliferative activity
CC(C)=CCc1cc(C(=O)Nc2cc3ccc(OC4CCN(C)CC4)c(C)c3oc2=O)ccc1OC1CCN(C)CC1 [Compound 25, N-(8-methyl-7-(1-methylpiperidin-4-yloxy)-2-oxo-2H-chromen-3-yl)-3-(3-methylbut-2-enyl)-4-(1-methylpiperidin-4-yloxy)benzamide]	increased anti-proliferative activity
